The record followed here is US20060154864.

The chains behind the UniProt entries cited, without tags or fusion partners. Where a name states a change or a piece, a line headed by the entry shows the natural chain unless it says otherwise. Residues count along the entry.
UniProt Q01714, 2-786: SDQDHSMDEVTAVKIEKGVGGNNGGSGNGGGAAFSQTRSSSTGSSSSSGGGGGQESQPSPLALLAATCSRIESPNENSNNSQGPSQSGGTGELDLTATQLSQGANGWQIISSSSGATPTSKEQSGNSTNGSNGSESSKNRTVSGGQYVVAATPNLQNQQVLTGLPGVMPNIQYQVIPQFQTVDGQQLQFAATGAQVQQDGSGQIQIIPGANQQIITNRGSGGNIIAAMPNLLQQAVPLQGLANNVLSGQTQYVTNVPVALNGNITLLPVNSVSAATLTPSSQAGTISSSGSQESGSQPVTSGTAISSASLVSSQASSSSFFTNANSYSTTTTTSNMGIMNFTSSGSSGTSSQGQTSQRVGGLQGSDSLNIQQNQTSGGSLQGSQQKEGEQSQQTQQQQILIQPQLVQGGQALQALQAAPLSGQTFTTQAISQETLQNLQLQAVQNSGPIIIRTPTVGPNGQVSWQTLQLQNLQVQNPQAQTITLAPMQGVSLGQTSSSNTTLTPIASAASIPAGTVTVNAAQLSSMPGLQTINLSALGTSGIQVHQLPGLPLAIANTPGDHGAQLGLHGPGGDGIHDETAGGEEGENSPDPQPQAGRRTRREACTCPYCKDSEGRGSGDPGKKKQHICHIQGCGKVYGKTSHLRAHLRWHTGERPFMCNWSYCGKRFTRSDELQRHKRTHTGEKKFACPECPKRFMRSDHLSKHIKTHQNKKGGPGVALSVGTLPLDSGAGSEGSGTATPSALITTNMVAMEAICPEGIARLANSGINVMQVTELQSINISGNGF
UniProt G3V7R4: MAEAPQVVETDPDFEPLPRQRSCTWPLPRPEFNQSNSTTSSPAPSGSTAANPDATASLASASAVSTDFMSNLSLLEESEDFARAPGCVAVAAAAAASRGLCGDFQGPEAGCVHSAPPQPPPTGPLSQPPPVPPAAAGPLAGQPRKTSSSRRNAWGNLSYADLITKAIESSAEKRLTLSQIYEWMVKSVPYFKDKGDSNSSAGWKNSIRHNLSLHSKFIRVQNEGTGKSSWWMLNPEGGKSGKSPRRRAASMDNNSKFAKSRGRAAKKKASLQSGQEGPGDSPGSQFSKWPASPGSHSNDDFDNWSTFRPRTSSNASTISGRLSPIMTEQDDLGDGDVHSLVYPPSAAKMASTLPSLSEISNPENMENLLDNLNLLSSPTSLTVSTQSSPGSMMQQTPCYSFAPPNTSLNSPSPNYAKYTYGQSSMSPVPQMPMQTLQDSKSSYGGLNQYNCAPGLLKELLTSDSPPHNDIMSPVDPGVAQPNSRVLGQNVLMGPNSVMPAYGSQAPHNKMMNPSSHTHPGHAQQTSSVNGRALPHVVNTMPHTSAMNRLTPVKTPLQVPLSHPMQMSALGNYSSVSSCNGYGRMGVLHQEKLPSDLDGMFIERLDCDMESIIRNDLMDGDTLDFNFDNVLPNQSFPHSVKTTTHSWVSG
UniProt O88275: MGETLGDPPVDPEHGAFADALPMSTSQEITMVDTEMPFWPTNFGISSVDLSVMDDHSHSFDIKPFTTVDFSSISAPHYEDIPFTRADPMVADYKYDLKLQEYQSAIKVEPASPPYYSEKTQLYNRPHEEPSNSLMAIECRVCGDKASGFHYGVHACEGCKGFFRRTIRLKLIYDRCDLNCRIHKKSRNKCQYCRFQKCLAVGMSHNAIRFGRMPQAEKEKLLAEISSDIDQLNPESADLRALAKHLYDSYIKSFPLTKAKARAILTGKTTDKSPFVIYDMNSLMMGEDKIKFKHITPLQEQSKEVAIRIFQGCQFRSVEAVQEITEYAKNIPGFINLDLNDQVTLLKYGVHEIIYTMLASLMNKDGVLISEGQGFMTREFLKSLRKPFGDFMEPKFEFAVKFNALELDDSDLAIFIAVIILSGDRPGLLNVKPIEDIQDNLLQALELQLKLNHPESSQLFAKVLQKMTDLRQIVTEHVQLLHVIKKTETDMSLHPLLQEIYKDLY

For some of these results: At least one result comes from cells or an extract, where the contact may be indirect. For some of these results: Protein sequences can lack the tags named with them. For some of these results: The exact form of at least one protein or probe is not confirmed. For some of these results: No signal at the amounts used counts as a negative. For some of these results: Weaker means in comparison with the reference protein, sequence or condition of that experiment.

For series [1], the system named is IRE-BP1 C-terminal fragment (Trx fusion) (Rattus norvegicus). Nature of the series: competition with a labelled probe. To be noted: purified recombinant protein, protein details: N-terminal Trx-His6 (pET-32a, E. coli).
Series [2] relates to IRE-BP1 endogenous (hepatic nuclear extract) (Rattus norvegicus). Nature of the series: EMSA. To be noted: protein in an extract. For orientation: Mobility shift assays separate free from complexed probe on a gel.
The target in series [3] is Sp1 (hepatic nuclear extract) (Rattus norvegicus) (UniProt Q01714). Nature of the series: EMSA. To be noted: protein in an extract.
Series [4] deals with Foxo1 (hepatic nuclear extract) (Rattus norvegicus) (UniProt G3V7R4). The series can be described thus: EMSA. Conditions: protein in an extract.
The target in series [5] is PPAR gamma (hepatic nuclear extract) (Rattus norvegicus) (UniProt O88275). Nature of the series: EMSA. To be noted: protein in an extract.
For series [6], the system named is IRE-BP1 C-terminal fragment (3.4-kb cDNA) (Rattus norvegicus). The series can be described thus: activity in cells. To be noted: no significant effect on transcription; protein in cells; only the site is given.
The test system of series [7] is IRE-BP1 C-terminal fragment (Trx fusion) (Rattus norvegicus). Nature of the series: EMSA. To be noted: purified recombinant protein; protein details: N-terminal Trx-His6 (pET-32a, E. coli); label: 32P.
Series [8] deals with T1, HBP1 (HMG box containing protein 1) (Rattus norvegicus) (UniProt Q62661).
T1 sequence (looked up, limits assumed): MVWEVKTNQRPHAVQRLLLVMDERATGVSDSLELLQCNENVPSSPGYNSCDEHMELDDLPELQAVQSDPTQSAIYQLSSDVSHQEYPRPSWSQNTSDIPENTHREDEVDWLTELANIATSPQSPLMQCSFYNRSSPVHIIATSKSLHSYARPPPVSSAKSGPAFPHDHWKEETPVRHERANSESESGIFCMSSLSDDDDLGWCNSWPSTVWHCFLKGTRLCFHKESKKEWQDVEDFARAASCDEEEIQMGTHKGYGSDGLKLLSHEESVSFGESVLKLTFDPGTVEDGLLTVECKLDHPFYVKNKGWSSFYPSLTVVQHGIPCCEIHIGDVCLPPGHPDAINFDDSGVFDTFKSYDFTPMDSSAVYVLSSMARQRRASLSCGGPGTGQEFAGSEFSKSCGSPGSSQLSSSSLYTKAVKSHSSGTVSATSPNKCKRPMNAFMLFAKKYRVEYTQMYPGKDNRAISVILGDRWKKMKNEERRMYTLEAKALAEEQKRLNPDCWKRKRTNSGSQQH
The series can be described thus: one hybrid. To be noted: protein in cells; protein details: GAL4 AD fusion (yeast one-hybrid); label: 32P.

The subject of a further series is NFkB p65. Nature of the series: one hybrid. Conditions: protein in cells; protein details: GAL4 AD fusion (yeast one-hybrid); label: 32P.
Setting [9] is: weaker competition, 50-fold excess.

On to “TATTTTGCGTGAGAGTTTCTAAAAGTCCAT (double strand) [Amylase IRE]”, for which the binding result in series [1] (competed fully, 50-fold excess) is on record as “binds”.
Take “GCCTCATTATTCCTGCCCACCAAT (double strand) [IGF-1 IRE]”: the binding result was “binds” in series [2]; “binds” in series [3]; “binds” in series [1] (competed fully, 50-fold excess).
Consider “GTTTGTTTTGCTAGT (double strand) [IGFBP-1 IRE]”, for which the binding result in series [4] is listed as “no binding”; in [2], “binds”; in [5], “no binding”; in series [3], “no binding”.
For “GGGACTTTCCGGGACTTTCC (double strand) [NFkB consensus]”, the binding result in series [1] (not competed, 50-fold excess) is reported as “no binding”.
For “ATCTATTTCCGTCATTAAGATA (double strand) [Prolactin IRE]”, the “activity on this sequence” value in series [6] was “not active”. Also, in series [1] (little competition, 50-fold excess), the binding result is given as “binds more weakly”.
For the sequence “TGGTGTTTTGACAAC (double strand) [PEPCK IRE]”, the binding result in series [1] (setting [9]) is recorded as “binds more weakly”.
Take “GACTAGAACAAACAAGTCCTGCGTA (double strand) [TAT IRE]”: in [1] (setting [9]), the binding result is “binds more weakly”.
For “AATTCAAGGGTATCCAGGAAAGTCTCCTTCAAG (double strand) [IGFBP-3 IRE]”, the binding result is recorded as “binds” in series [7]; “binds” in series [2] (label: 32P); “no binding” in series [3] (label: 32P); “binds” in [8]; “binds” with NFkB p65.
Consider “AAGTTCCCCAACTTTCCCGCCTCTCAGCCTTTGAAAG (double strand) [GAPDH IRE]”, for which the binding result in series [1] (competed fully, 50-fold excess vs IGFBP-3 IRE) is “binds”.
